For some of these results: Part of at least one peptide drawing is inferred or uncertain, most often the ends. Some entries share one result that the patent states for a list of compounds. Peptide text beside a SMILES is read from it. * marks the point of attachment. ξ: configuration not given here. Biotin = O=C1N[C@H]2[C@H](CS[C@H]2CCCCC(=O)*)N1; Lipoyl(6ξ) = O=C(CCCCC1CCSS1)*
Tests used:
SIRT4 = biological target: T1, SIRT4 (Homo sapiens, UniProt Q9Y6E7); assay: HPLC-based SIRT4 kinetics assays (steady-state, acyl-modified peptide substrates); format: biochemical; details: for kcat: SIRT4 enzyme concentration = 5 μM, NAD 1 mM, 25° C.
T1 construct: 6xHis (followed by human rhinovirus 3C protease site) (N); made in house; host or cells: E. coli BL21(DE3), co-expressed with GroEL and GroES
T1 sequence (Q9Y6E7 33-314): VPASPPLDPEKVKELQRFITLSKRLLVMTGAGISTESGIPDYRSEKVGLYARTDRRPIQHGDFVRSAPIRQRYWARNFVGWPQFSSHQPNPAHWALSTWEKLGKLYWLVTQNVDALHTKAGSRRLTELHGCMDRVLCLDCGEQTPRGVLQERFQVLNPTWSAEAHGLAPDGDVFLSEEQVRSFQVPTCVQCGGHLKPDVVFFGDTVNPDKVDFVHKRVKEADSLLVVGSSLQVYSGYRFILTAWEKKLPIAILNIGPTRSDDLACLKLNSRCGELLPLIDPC
Description: Recombinant SIRT4 protein expression and purification. N-terminally truncated human Sirt4 (33-314 of SEQ ID NO: 2) was cloned into a derivative of pET-15b containing a human rhinovirus 3C Protease cleavage site in place of its thrombin cleavage site. 6×His-Sirt4 was co-expressed with GroEL and GroES in BL21(DE3) E. coli in order to promote proper protein folding. Protein was purified using immobilized-metal affinity chromatography (IMAC) followed by anion-exchange chromatography to remove associated folding chaperones. For some experiments the His-tag was removed using 3C protease. Protein was concentrated, snap frozen in N2(l), and stored at −80° C. HPLC-based SIRT4 kinetics assays. SIRT4 kinetic assays were essentially performed as described by others^3,4. Briefly, enzyme reactions (20 μL) were performed in 50 mM Tris, pH 8.0, containing 5 μM recombinant SIRT4 and varying concentrations (0 to 2500 μM) of H3K9- or DLAT-modified peptides with either acetyl-lysine, biotinyl-lysine, or lipoyl-lysine. Reactions were initiated by addition of NAD (1 mM) and incubated at 25° C. for between 30-120 min, depending on substrate-specific reaction rates and to maintain steady-state conditions. Reactions were quenched with formic acid to a final concentration of 0.5% (v/v) and analyzed by HPLC-UV detection (Ultimate 3000 RSLC/VWD-3400). Substrate and product were separated by reverse-phase chromatography (Acclaim PepMap RSLC, 75 μm×15 cm) at 0.75 μL/min. Product concentration was measured by peak integration of A280 signals. Initial reaction velocities were determined in at least duplicate and fit to a modified Briggs-Haldane equation, which substituted kcat×[SIRT4] for Vmax and allowed determination of kinetic parameters, kcat, Km and kcat/Km and their associated error (±SEM), using GraphPad Prism 5. SIRT4's catalytic efficiency towards the various acyl-modified peptide substrates was assessed (Table 1 below).

SIRT4 mRNA = assay: SIRT4 knock-down efficiency by qRT-PCR in MRC5 cells stably expressing shRNA; format: cell-based, human; details: MRC5 fibroblasts, mRNA level by qPCR
Description: SIRT4 shRNA expression. pLKO.1-puro vectors containing either non-targeting control shRNA or SIRT4-targeting shRNA were purchased from Sigma-Aldrich and are listed in FIG. 11. To generate MRC5 cells stably expressing each of the shRNA constructs, HEK293T cells were co-transfected with appropriate pLKO.1 vector, pCMVΔR8.2 (Addgene, plasmid #12263) and pMD2.G (Addgene, plasmid #12259) using FuGENE 6. Media containing lentivirus particles were used to transduce MRC5 cells, which were subsequently selected with 2 μg/mL puromycin (InvivoGen, cat. #ant-pr-1). Knockdown efficiency was measured by qRT-PCR and western blotting.
qRT-PCR analysis. For qRT-PCR analysis, MRC5 cells were collected and washed with PBS. Total RNA was isolated from cell pellets using RNeasy Mini Kit (Qiagen, cat. #74104) and the concentration/purity determined by measuring the absorbance 260/280 nm using NanoDrop Spectrophotometer (Thermo Fisher Scientific). For cDNA synthesis, 1 μg of RNA from each sample was first treated with DNase I (Life Technologies, cat. #18068015) and then used as a template in the RETROscript kit (Life Technologies, cat. #AM1710). The cDNAs were mixed with appropriate primers listed in FIG. 12 and Power SYBR green PCR master mix (Life Technologies, cat. #4368706) for qRT-PCR on ABI 7900HT Real-Time Thermocycler (Applied Biosystems). […]

SIRT5 = biological target: T2, SIRT5 (Homo sapiens, UniProt Q9NXA8); assay: Kinetic analysis of SIRT5 with DLAT K259 peptides; format: biochemical
T2 construct: purchased Sigma SRP0119-100UG
T2 sequence (Q9NXA8 37-310): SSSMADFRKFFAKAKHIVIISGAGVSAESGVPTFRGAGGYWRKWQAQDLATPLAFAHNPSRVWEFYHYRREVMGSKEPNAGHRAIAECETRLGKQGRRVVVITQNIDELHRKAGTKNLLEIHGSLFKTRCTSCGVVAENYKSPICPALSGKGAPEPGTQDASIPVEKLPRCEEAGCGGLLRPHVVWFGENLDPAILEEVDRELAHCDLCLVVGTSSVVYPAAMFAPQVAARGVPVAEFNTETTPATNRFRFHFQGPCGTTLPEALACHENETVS

C[C@H](NC(=O)[C@@H](NC(=O)[C@H](CCC(N)=O)NC(=O)[C@@H](N)CCCCN)[C@@H](C)O)C(=O)N[C@@H](CCCNC(=N)N)C(=O)N[C@@H](CCCCNC(=O)CCCC[C@@H]1SC[C@@H]2NC(=O)N[C@@H]21)C(=O)N[C@@H](CO)C(=O)N[C@H](C(=O)NCC(=O)NCC(=O)N[C@@H](Cc1c[nH]c2ccccc12)C(=O)N[C@@H](Cc1c[nH]c2ccccc12)C(=O)O)[C@@H](C)O [H3 K9 Biotinyl] (H-KQTARK(Biotin)STGGWW-OH)
kcat (SIRT4): 0.0005 ± 0.0001 s⁻¹ | efficiency of removal by SIRT4 compared to acetylated H3K9 (SIRT4; another experiment (Table 1)): 9 fold | efficiency of removal by SIRT4 compared to acetylated H3K9 (SIRT4; first experiment): 11 fold

C[C@H](NC(=O)[C@@H](NC(=O)[C@H](CCC(N)=O)NC(=O)[C@@H](N)CCCCN)[C@@H](C)O)C(=O)N[C@@H](CCCNC(=N)N)C(=O)N[C@@H](CCCCNC(=O)CCCCC1CCSS1)C(=O)N[C@@H](CO)C(=O)N[C@H](C(=O)NCC(=O)NCC(=O)N[C@@H](Cc1c[nH]c2ccccc12)C(=O)N[C@@H](Cc1c[nH]c2ccccc12)C(=O)O)[C@@H](C)O (stereo partly shown) [H3 K9 Lipoyl] (H-KQTARK(Lipoyl(6ξ))STGGWW-OH)
kcat (SIRT4): 0.0019 ± 0.0002 s⁻¹ | efficiency of removal by SIRT4 compared to acetylated H3K9 (SIRT4; another experiment (Table 1)): 28 fold | efficiency of removal by SIRT4 compared to acetylated H3K9 (SIRT4; first experiment): 30 fold

shSIRT4 #5: SIRT4-targeting shRNA construct in pLKO.1-puro vector, purchased from Sigma-Aldrich (DNA CCGGACAGGGACTTTCACTTGAATCCTCGAGGATTCAAGTGAAAGTCCCTGTTTTTTG)
SIRT4 knock-down (SIRT4 mRNA; listed as #5): > 75%

CC[C@H](C)[C@H](NC(=O)[C@@H](NC(=O)[C@H](C)NC(=O)[C@H](CCCCNC(C)=O)NC(=O)[C@H](CC(=O)O)NC(=O)[C@@H](NC(=O)[C@H](CCC(=O)O)NC(=O)[C@@H](NC(=O)[C@@H](N)CCC(=O)O)[C@@H](C)CC)[C@@H](C)O)[C@@H](C)O)C(=O)NCC(=O)N[C@@H](Cc1c[nH]c2ccccc12)C(=O)O [DLAT K259 Acetyl] (H-EIETDK(Ac)ATIGW-OH)
SIRT5 activity (SIRT5): low, but detectable activity | efficiency, fold lower than DLAT lipoyl (SIRT4; SIRT4): 38 fold

shSIRT4 #1: SIRT4-targeting shRNA construct in pLKO.1-puro vector, purchased from Sigma-Aldrich (DNA CCGGCCCGATTGCAATACTGAACATCTCGAGATGTTCAGTATTGCAATCGGGTTTTT)
SIRT4 knock-down (SIRT4 mRNA): > 75%

From US11726088B2, “Sirtuin 4 (SIRT4) lipoamidase activity and uses thereof” (THE TRUSTEES OF PRINCETON UNIVERSITY, priority 2014, dated 2023)
